According to patent publication US20090304707A1:
Results are given in words; binding and its absence hold for the method and conditions named. Some entries that bind do so weakly or less than the wild type. One block for each binder: values may come before it.

Protein sequences, listed by entry. Tags and fused reporters are not part of them. Residues count along the entry.
UniProt P09038, residues 134-288: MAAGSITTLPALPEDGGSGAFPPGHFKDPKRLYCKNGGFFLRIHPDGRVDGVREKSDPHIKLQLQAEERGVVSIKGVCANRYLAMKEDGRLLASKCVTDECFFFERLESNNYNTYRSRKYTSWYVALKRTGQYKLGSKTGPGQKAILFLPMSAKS
UniProt P15655, residues 10-154: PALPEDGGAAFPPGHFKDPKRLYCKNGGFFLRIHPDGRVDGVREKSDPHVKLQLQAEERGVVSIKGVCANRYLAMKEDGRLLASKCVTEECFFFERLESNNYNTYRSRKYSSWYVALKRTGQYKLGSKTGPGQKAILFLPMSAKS

How the values were obtained:
[1] = target: human basic fibroblast growth factor (FGF2) (human) (UniProt P09038); assay: FGF2 binding ELISA, FGF2 captured on heparin-coated wells (FIG. 1)
mouse FGF2 (mouse) = mouse FGF2 (mouse) (UniProt P15655); assay: as above
[2] = target: human basic fibroblast growth factor (FGF2) (human) (UniProt P09038); assay: competitive binding ELISA, unlabelled GAL-F2 against biotinylated GAL-F2 on heparin-captured FGF2 (FIG. 3)
[3] = target: human basic fibroblast growth factor (FGF2) (human) (UniProt P09038); assay: competitive binding ELISA, competitor biotinylated GAL-F2, heparin-captured human FGF2 (FIG. 12)

binding [1]: binds
binding (mouse FGF2 (mouse)): binds
binding [2]: binds
B1: GAL-F2 anti-FGF2 mAb (mouse monoclonal antibody, hybridoma ATCC PTA-8864) (antibody, V domains shown)
VH: EVHLQQSGPELVKPGASVKMSCKASGYTFTNYVINWVKQKPGQGLEWIGYNDPYNDVSKYNEKFKGKATLTSDKSSSTAYMELSSLTSEDSAVYYCAKEGGGKYVYAMDSWGQGTSVTVSS
VL: SIVMTQTPKFLLVSAGDRVTMTCKASQSVSSDVGWYQQKPGQSPKLLIYSGSNRYSGVPDRFTGSGYGTDFTFTISTVQAEDLAVYFCQQDYYSPWTFGGGTKLEIK

binding [3]: binds
B2: ChGAL-F2 (mouse-human chimeric GAL-F2 mAb) (antibody, V domains shown)
VH: B1 VH
VL: B1 VL

binding [3]: binds
B3: HuGAL-F2 (humanized GAL-F2 mAb) (antibody, human IgG1, kappa, V domains shown)
VH: EVQLVQSGAEVKKPGSSVKVSCKASGYTFTNYVINWVRQAPGQGLEWIGYNDPYNDVSKYNEKFKGRATITSDKSTSTAYMELSSLRSEDTAVYYCAKEGGGKYVYAMDSWGQGTTVTVSS
VL: DIQMTQSPSSLSASVGDRVTITCKASQSVSSDVGWYQQKPGKAPKLLIYSGSNRYSGVPSRFSGSGSGTDFTLTISSLQPEDFATYYCQQDYYSPWTFGQGTKVEIKR
